Primary screen of a compound library

Amino acid sequences for entries named in this document (tags omitted).
UniProt E9BF75, entry or part of it: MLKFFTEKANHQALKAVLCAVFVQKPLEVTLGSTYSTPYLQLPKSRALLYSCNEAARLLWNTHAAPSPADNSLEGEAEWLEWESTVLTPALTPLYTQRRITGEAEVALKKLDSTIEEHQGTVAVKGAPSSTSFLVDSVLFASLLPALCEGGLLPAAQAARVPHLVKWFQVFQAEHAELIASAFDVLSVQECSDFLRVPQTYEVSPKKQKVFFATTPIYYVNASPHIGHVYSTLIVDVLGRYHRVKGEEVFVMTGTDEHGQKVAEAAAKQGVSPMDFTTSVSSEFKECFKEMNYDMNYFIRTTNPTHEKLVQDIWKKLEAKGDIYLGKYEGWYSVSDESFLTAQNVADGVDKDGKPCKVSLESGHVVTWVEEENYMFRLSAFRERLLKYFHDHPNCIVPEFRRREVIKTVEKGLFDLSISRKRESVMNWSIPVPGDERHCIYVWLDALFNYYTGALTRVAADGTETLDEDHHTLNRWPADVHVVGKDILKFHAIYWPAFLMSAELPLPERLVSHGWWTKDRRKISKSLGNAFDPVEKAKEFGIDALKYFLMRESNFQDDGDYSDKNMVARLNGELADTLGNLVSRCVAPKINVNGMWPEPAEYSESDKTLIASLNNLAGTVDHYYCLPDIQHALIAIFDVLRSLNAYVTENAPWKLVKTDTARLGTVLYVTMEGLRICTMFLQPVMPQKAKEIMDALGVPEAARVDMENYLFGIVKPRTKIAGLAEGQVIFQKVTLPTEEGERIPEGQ

A: 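Assay on Mycobacterium tuberculosis, filed only as a heat shock assay from Cornell; the read-out is not stated. The concentration is filed as 10 mM, unlikely as a test dose, so the dose is not known. The record gives no direction; compounds that gave an IC50 in retests scored well above the rest, so higher reads as stronger inhibition. Size under these conditions: about 69,000 compounds, about 930 of them at 50% or above in at least one test.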
B: 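Whole-cell assay for inhibitors of Mycobacterium tuberculosis growth, labelled Cornell in the record; the read-out is not stated. The concentration is filed as 10 mM, unlikely as a test dose, so the dose is not known. The record gives no direction; compounds strong in two other growth screens of this library score well above the rest, so higher reads as stronger inhibition. About 53,000 compounds were tested under these conditions; 1.7% (about 900) showed 50% or more at least once.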
C: 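Methionyl-tRNA synthetase (putative), Leishmania donovani (UniProt E9BF75). Primary screen of methionyl-tRNA synthetase; the read-out is not stated. The test concentration is not given. Values are per cent inhibition. Size under these conditions: about 68,000 compounds, about 24 of them at 50% or above in at least one test.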

All values are in %.
How 0% and 100% were set is not recorded. Most values in the screen are low, and negative values occur.
This is an unselected part of the compounds tested.
A dash means the value is not listed here; it may have been measured.

structure	A	B	C
O=C(O)C(F)(F)F.[H][C@]12CN(CC)C[C@@]1(C(=O)O)CCCN(c1cc(OC)ncn1)C2	9.196	-3.354	-
Cc1noc(C)c1CN1CCCC2(CCN(CC3CCCC3)C2)C1 (stereo not drawn)	-	-	4.167
O=C(O)C(F)(F)F.O=C(O)C(F)(F)F.O=C(O)C(F)(F)F.[H][C@]12CCN(Cc3cccnc3)[C@@]1([H])CC[C@@H](COCCN1CCCC1)O2	-18.74	19.67	-
O=C(NCC1(CO)CC1)c1ccccc1Br	-3.813	0.3854	7.343
O=C(O)C(F)(F)F.c1nc2c(c(NC3CCC3)n1)CCNCC2	-10.29	30.1	-
Cc1nc(-c2ccc(F)cc2)cc(C2CCNCC2)n1	-9.323	4.796	12.77
CC(C)[C@@H]1CN(C(=O)CN(C)Cc2ccc(F)cc2)C[C@H]1C(=O)O	-182.7	-	6.344
O=C(N1CCCO1)[C@]12COC[C@H]1CN(Cc1nccs1)C2	-	-	10.8
Cn1cc(Cl)cc1C(=O)N1CCC2(CCCN(CC3CCC3)C2=O)C1 (stereo not drawn)	-16.68	7.657	10.64
CC(c1ccc(Cl)cc1)N1CCN(CCCS(N)(=O)=O)CC1 (stereo not drawn)	-31.9	-11.98	5.017
CC(N)Cc1ccccc1Sc1ccc(O)cc1 (stereo not drawn)	-	-	21.05
[H][C@]12CC[C@]([H])(CN(CC(=O)N(C)C)C1)N(C(=O)CCCn1cncn1)C2	8.582	-	-
Cn1cc(N2CC[C@@H]3CN(Cc4ccncc4)C[C@H]3C2=O)cn1	-	-	6.723
Cc1c(C(=O)O)cnn1-c1ccc(-c2nc(C3CC3)no2)cn1	6.506	32.26	11.26
[H][C@@]12COC[C@]1(COCc1cccnc1)CN(C(=O)c1cc(C)on1)C2	11.2	14.99	-
Cn1ccc(CN2CCC(NC(=O)C3CCCCC3)CC2)cc1=O	6.086	-	16.21
O=C(NCC1CCOC1)c1csc(Cc2ccccc2)n1 (stereo not drawn)	-29.59	-11.52	10.84
Cc1csc(C2(NC(=O)NCCN3CCOCC3)CCC2)n1	-1.69	26.87	7.88
CC(C)COC(=O)N1[C@@H](c2ccco2)[C@@H](CO)C[C@]12CCCCNC2=O	27.47	5.481	5.753
COCCc1noc(CN2CCCCC2Cn2cc(C)cn2)n1 (stereo not drawn)	-18.56	-13.31	0.6135
CO[C@H]1C[C@@H]2CN(C(=O)c3cccc4c3OCCO4)C[C@@H]2C1	-	-	2.188
CCc1nncn1CCNC(=O)Nc1ccc(OC)c(C)c1	-2.246	-	14.64
Cc1cc(C)n(CCC(=O)OCC(=O)N2CCc3sccc3C2)n1	0.2046	-43.96	7.56
Cc1ccc(C#N)c(N2CC(C)(C)[C@@](C)(O)C2)n1	4.893	10.2	-3.359
CC(NC(=O)Cc1cc2c(cc1Cl)OCCO2)c1ccncn1 (stereo not drawn)	2.721	33.73	6.803
O=C(c1ccc(-c2cccc3c2CCNC3)o1)N1CCOCC1	23.74	-3.032	8.696
COc1ncccc1CN1CCC2(CC1)COCCN2C.O=C(O)C(F)(F)F.O=C(O)C(F)(F)F	-20.05	10.16	-
Cc1nc2cc(-c3nccn3C)nn2c(N2CCCC(CO)C2)c1C (stereo not drawn)	-5.985	23.57	11.56
O[C@@]1(CNCC2(Cn3cccn3)CC2)CCCN2CCCC[C@@H]21	-	-	3.284
Clc1cccc(CNC2CCN(CCc3ccncc3)CC2)c1	-16.56	-	-
CCN(c1ccc(C(=O)N(Cc2cnn(C)c2)C(C)C)cn1)C(C)C	3.432	9.006	6.443
Cc1ncccc1-c1cc2cccnc2n1CCCNC(=O)C1CC1.Cl	5.071	15.61	-
Cc1cn2c(n1)CCC(NC(=O)COCCOc1ccccc1)C2 (stereo not drawn)	-26.73	-9.518	17.51
CCN(Cc1nccn1C)C(=O)c1ccc(NCc2ccc(C)o2)nc1	-17.46	-23.46	2.01
N#Cc1ccc(SCCC(=O)N(Cc2cccnc2)C2CC2)cc1	10.68	-	12.78
O=C(NCC1CC1)C1CSCN1S(=O)(=O)c1ccccc1 (stereo not drawn)	9.287	-10.73	13.31
Fc1ccc(C(CNc2ccncn2)N2CCCC2)cc1 (stereo not drawn)	-9.623	-14.33	1.075
CCCc1nnsc1C(=O)NCC(O)c1ccoc1 (stereo not drawn)	3.983	9.046	6.954
O=C(c1ccncc1)N1CC[C@@H]2[C@@H](CC1)OCCN2c1cccnc1	-	-	14.88
COc1c(C2CCCN2C(=O)c2ccc(C(N)=O)s2)c(C)nn1C (stereo not drawn)	9.61	-3.122	13.69
COCCN1CCN(Cc2ccc(F)c(C)c2)[C@H]2CS(=O)(=O)C[C@H]21	-	-	0.7407
[H][C@]12CC[C@]([H])(CN(CC(=O)N(C)C)C1)N(Cc1ccccc1OCCO)C2	-6.001	20.82	-
CCc1ccccc1Nc1noc2c1CN(C(=O)c1ccn(C)n1)CC2	5.601	47.96	10.47
COc1ccc(CN2CCn3cc(CNC(=O)C4CCC4)nc3C2)cc1.O=C(O)C(F)(F)F	-12.82	-0.7675	-
COCCCNC(=O)CN(C)Cc1ccc(F)cc1Cl	-26.56	1.091	1.873
CCOCC1c2c(cnn2C)CCN1C(=O)c1cc(C)on1 (stereo not drawn)	-	-	10.39
CC(C)c1cccc(-n2cc(O)c(C(=O)NCCC(=O)N(C)C)n2)c1	-6.73	6.254	15.12
COc1ccc(N2CCN(C(=O)Cn3nccc3C)CC2(C)C)cc1	16.6	10.75	-21.2
CCO[C@@H]1CO[C@@]2(CCCN(C(=O)COc3ccccc3OC)C2)C1	-4.7	5.373	19.61
COCC1CN(Cc2ccoc2)Cc2nn(C)cc21 (stereo not drawn)	-	-	6.667
COc1cc(CNCCC(N)=O)c2c(c1)CC(C)O2 (stereo not drawn)	-36.06	-28.39	2.174
CCO[C@@H]1CN(S(=O)(=O)c2cn(C)cn2)[C@@H]2CCCO[C@@H]21	-	-	12.94
Cn1cc(C(O)CNC(=O)Nc2cc(F)ccc2-n2cccn2)cn1 (stereo not drawn)	19.92	-	11.65
[H][C@]12CC[C@]([H])(CN(S(=O)(=O)c3cccc(Cl)c3)C1)N(CCOC)C2=O	-5.839	-	-
CCC(C)N(Cc1cccnc1)Cc1cc2c(cc1Cl)OCO2 (stereo not drawn)	32.03	-	8.059

Some entries from above, unchanged:

| structure | A | B | C |
|---|---|---|---|
| `[H][C@]12CC[C@]([H])(CN(CC(=O)N(C)C)C1)N(C(=O)CCCn1cncn1)C2` | 8.582 | - | - |
| `O=C(O)C(F)(F)F.O=C(O)C(F)(F)F.O=C(O)C(F)(F)F.[H][C@]12CCN(Cc3cccnc3)[C@@]1([H])CC[C@@H](COCCN1CCCC1)O2` | -18.74 | 19.67 | - |
| `COc1ncccc1CN1CCC2(CC1)COCCN2C.O=C(O)C(F)(F)F.O=C(O)C(F)(F)F` | -20.05 | 10.16 | - |
| `CC(C)[C@@H]1CN(C(=O)CN(C)Cc2ccc(F)cc2)C[C@H]1C(=O)O` | -182.7 | - | 6.344 |
| `Cn1cc(Cl)cc1C(=O)N1CCC2(CCCN(CC3CCC3)C2=O)C1` (stereo not drawn) | -16.68 | 7.657 | 10.64 |
| `O=C(c1ccc(-c2cccc3c2CCNC3)o1)N1CCOCC1` | 23.74 | -3.032 | 8.696 |

Measurements from “University of Dundee, Small-Polar-MMV Screening Library” (2021), ChEMBL document CHEMBL3988442.